# Assay results published in PubChem BioAssay AID587 (National Center for Advancing Translational Sciences (NCATS), 2007).
# Among all 59,000 compounds or so, about 35 (0.06%) were called active. Inconclusive results, whose numbers are uncertain, are shown with a selection of clear calls. No stated cut-off is given here; in the data, active means max dye-equivalent concentration above about 10 nM; inconclusive means between about 1.1 nM and that limit; inactive means weaker than that.
# Assay: qHTS Assay for Spectroscopic Profiling in Texas Red Spectral Region
# Settings: Compound fluorescence, Texas Red channel, 547/618 nm; stronger effect = higher value
# Outline: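 Dye-equivalent concentrations come from scaling compound signal (ex 547, em 618 nm) to six Texas Red standard concentrations run on every plate, after 15 min room-temperature incubation in pH 8.0 Tris (100 mM).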
SMILES,max dye-equivalent concentration,outcome
CCn1c(Cc2ccc(OC)cc2)nnc1SCC(=O)Nc1nc2ccccc2s1,inconclusive: 1.1 nM,–
O=C(OCC#CCSc1nc2ccccc2s1)c1ccco1,inconclusive: 1.9 nM,–
COCCN1Cc2cccc(C(=O)NCc3ccccc3OC)c2C1=O,inconclusive: 1.2 nM,–
CCC1CCCCN1S(=O)(=O)c1ccc(NC(=O)CSc2ncccc2C(=O)O)cc1 (stereo unspecified),inconclusive: 1.2 nM,–
CCC(=O)Nc1ccc(Cl)c(NC(=O)c2ccc(Br)o2)c1,inconclusive: 1.8 nM,–
COc1cc(OC)c(C(=O)Oc2ccc3c(c2)OCO3)cc1OC,inconclusive: 1.4 nM,–
C=CCN1C(=O)C(CC(=O)NCC)SC1=Nc1ccc(S(N)(=O)=O)cc1 (stereo unspecified),inconclusive: 1.8 nM,–
CCOC(=O)C1=C(c2ccccc2)NC(=O)NC1c1ccc(OCC#N)c(OC)c1 (stereo unspecified),inconclusive: 1.2 nM,–
CCOc1ccc(-c2nnn(CC(=O)N3CCN(c4ccc(OC)cc4)CC3)n2)cc1OCC,inactive,–
CC1(C)CC(=O)C2=C(C1)N(CCN1CCOCC1)C1=C(C(=O)CC(C)(C)C1)C2c1ccc(Cl)cc1,inconclusive: 1.6 nM,–
Cc1ccc(-c2nnc3c4ccccc4c(C)nn23)cc1S(=O)(=O)N1CCN(C)CC1,inconclusive: 1.1 nM,–
O=S(=O)(c1cccc2c(S(=O)(=O)N3CCCC3)cccc12)N1CCCC1,inconclusive: 1.1 nM,–
O=c1c(F)cn(C2CCCO2)c(=O)n1Cc1c(F)cccc1Cl (stereo unspecified),inconclusive: 1.5 nM,–
O=S(=O)(Cc1ccccc1)N1CCC(c2nc(-c3cccs3)no2)CC1,inconclusive: 3.3 nM,–
CC(CN1CCN(C)CC1)OC(=O)c1ccccc1Cl (stereo unspecified),inconclusive: 1.8 nM,–
COc1ccc2[nH]cc(C3N4CC5(C)CN3CC(C)(C4)C5=O)c2c1 (stereo unspecified),inconclusive: 1.1 nM,–
CC1CCN(C(=O)CCNS(=O)(=O)c2ccccc2)CC1,inconclusive: 1.2 nM,–
CCc1nc(SCC(=O)Nc2cc(C)on2)c2c(C)c(C)sc2n1,inconclusive: 1.1 nM,–
CN(C)c1nc2n(c(=O)n1)CCO2,inconclusive: 1.4 nM,–
COc1ccccc1-c1nc(NC(C)=O)n[nH]1,inconclusive: 1.2 nM,–
CS(=O)(=O)N1CCCC(C(=O)NCCN2CCC(Cc3ccccc3)CC2)C1 (stereo unspecified),inconclusive: 1.1 nM,–
COc1cc(C)cc2c(-c3c(O)cc(O)c4c3C[C@H](C)N[C@@H]4C)cc(-c3cc(-c4c(O)cc(O)c5c4C[C@H](C)N[C@@H]5C)c4cc(C)cc(OC)c4c3O)c(O)c12,inactive,–

# Ordered by heavy-atom count (rising): part of the list above
SMILES,max dye-equivalent concentration,outcome
CC(CN1CCN(C)CC1)OC(=O)c1ccccc1Cl (stereo unspecified),inconclusive: 1.8 nM,–
C=CCN1C(=O)C(CC(=O)NCC)SC1=Nc1ccc(S(N)(=O)=O)cc1 (stereo unspecified),inconclusive: 1.8 nM,–
Cc1ccc(-c2nnc3c4ccccc4c(C)nn23)cc1S(=O)(=O)N1CCN(C)CC1,inconclusive: 1.1 nM,–

# (cont.)

SMILES,max dye-equivalent concentration,outcome
COc1cc(S(=O)(=O)N2CCN=C2c2ccccc2)ccc1F,inconclusive: 1.2 nM,–
CCOC(=O)C1CCN(C(=O)CSC2=NCCS2)CC1,inconclusive: 1.2 nM,–
CCCCCCOC(=O)C(C#N)c1nc2ccccc2nc1N1CCCCC1 (stereo unspecified),inactive,–
CC(C)NC(=O)N1CCC2(CC1)CCN(C(=O)c1csnn1)CC2,inactive,–
Cc1ccc(-c2[nH]c(=O)n3ccncc23)s1,inconclusive: 1.1 nM,–
CCC(C)NC(=O)c1ccccc1NC(=O)C(C)N(c1ccccc1)S(C)(=O)=O (stereo unspecified),inconclusive: 1.2 nM,–
CC(C)(Oc1ccc([C@@H]2CC2(Cl)Cl)cc1)C(=O)O,inconclusive: 1.3 nM,–
COc1cccc(-c2nnc(N(C)C(=O)C3CCOC3)s2)c1 (stereo unspecified),inconclusive: 1.4 nM,–
COc1ncc2nc(-c3cccs3)c(=O)n(CCC#N)c2n1,inactive,–
Cc1ccc(C(=O)CC2(O)C(=O)N(Cc3ccccc3Cl)c3ccccc32)o1 (stereo unspecified),inconclusive: 1.4 nM,–
CCN(CC)c1ccc(CN(C(=O)c2cc(OC)c(OC)c(OC)c2)C2CCS(=O)(=O)C2)cc1 (stereo unspecified),inconclusive: 1.1 nM,–
N#CC1=C(N)OC2=C(CCC/C2=C/c2ccoc2)C1c1ccoc1 (stereo unspecified),inconclusive: 3 nM,–
O=C(Nc1ccccc1Cl)c1cc(S(=O)(=O)N2CCCC(C(=O)O)C2)ccc1F (stereo unspecified),inconclusive: 2.3 nM,–
O=c1c2c(nc3c(-c4cccc5ccccc45)c[nH]n13)CCC2,inconclusive: 1.3 nM,–
O=C(NCCc1ccccc1)c1cc(-c2ccc3c(c2)OCO3)on1,inconclusive: 1.2 nM,–
O=C(COC(=O)Cc1cn2ccsc2n1)Nc1nc2ccccc2s1,inconclusive: 1.3 nM,–
O=C(O)[C@@H]1[C@@H]2C[C@H]([C@@H](Br)[C@H]2N2C(=O)CCC2=O)[C@@H]1C(=O)O,inconclusive: 1.2 nM,–
OC(CCN1CCCCC1)(c1ccccc1)c1ccccc1,inconclusive: 1.3 nM,–
C=CCOC(=O)C1=C(C)Nc2nc3ccccc3n2C1c1ccncc1 (stereo unspecified),inconclusive: 1.2 nM,–
CN(CC(=O)NCCN1CCN(Cc2ccccc2)CC1)S(=O)(=O)c1cccc2nsnc12,inconclusive: 1.6 nM,–
O=C(NCc1ccco1)C(c1ccc(F)cc1)N(CC1CCCO1)C(=O)Cn1nnc2ccccc21 (stereo unspecified),inconclusive: 1.5 nM,–
N#CC1=C(N)C(C#N)(C#N)[C@H](c2ccoc2)[C@H]2CN(Cc3ccccc3)CC=C12,inconclusive: 1.6 nM,–

SMILES,max dye-equivalent concentration,outcome
Cc1ccc(N2CC(C(=O)OCC(=O)C(C)(C)C)CC2=O)cc1 (stereo unspecified),inconclusive: 1.6 nM,–
CCOC(=O)N1CCN(S(=O)(=O)c2cc(Cl)ccc2Cl)CC1,inconclusive: 1.5 nM,–
O=C(CN1CCSCC1)N1CCc2[nH]c3ccc(Br)cc3c2C1,inconclusive: 1.1 nM,–
CSc1nnc(-c2cccs2)n1-c1ccccc1,inconclusive: 1.5 nM,–
N=C1CCC[C@@H]1C(=S)SCCC(N)=O,inactive,–
Cc1cc(-n2c(=O)c(C#N)cc3c(=O)n4cccc(C)c4nc32)no1,inconclusive: 1.2 nM,–
O=C1Cn2c(nc3ccccc32)N1c1ccccc1F,inconclusive: 1.2 nM,–
Cc1cc(C)c2c(=O)[nH]c(=O)n(Cc3ccccc3)c2n1,inactive,–
Cc1cc(C)n(CCn2nc(C)cc2C)n1,inconclusive: 1.1 nM,–
CCc1c(O)nc(SCC(=O)Nc2ccccc2)n(-c2ccccc2)c1=O,inconclusive: 1.1 nM,–
O=C(CCCc1nc(-c2ccccc2Cl)no1)NC1CCCCC1,inconclusive: 1.1 nM,–
Fc1ccccc1OCCCN1CCOCC1,inconclusive: 1.2 nM,–
O=C(CSc1nnnn1C1CCCCC1)NCCc1ccccc1,inconclusive: 1.1 nM,–
Cc1ccccc1-c1nc(CN2CCCC(C(=O)NCCCN3CCOCC3)C2)c(C)o1 (stereo unspecified),inconclusive: 1.1 nM,–
COc1cccc(NC(=O)COc2ccccc2C(N)=O)c1,inconclusive: 1.4 nM,–
Cc1ccc(C(=O)/C=C/Nc2ccccn2)cc1,inconclusive: 1.2 nM,–
CC(=O)Nc1ccccc1NC(=O)CC(C)(C)C,inconclusive: 1.7 nM,–
CC1S/C(=C(\C#N)C(=O)NCc2ccco2)N(c2ccc(F)cc2)C1=O (stereo unspecified),inconclusive: 1.4 nM,–
Cc1ccc(C)c(NC(=O)CN(C)S(=O)(=O)c2ccccc2)c1,inconclusive: 1.2 nM,–
C[C@@H]1O[C@H](O[C@@H]2[C@@H](Oc3cc(O)c4c(c3)O[C@H](c3ccc(O)cc3)CC4=O)O[C@@H](CO)[C@@H](O)[C@H]2O)[C@@H](O)[C@H](O)[C@@H]1O,inactive,–
O=C(CN1CCC(O)(c2ccc3c(c2)OCO3)CC1)N1CCOCC1,inconclusive: 1.1 nM,–
CCC(=O)Nc1c(C#N)c2nc3ccccc3nc2n1-c1ccc(C)cc1,inconclusive: 2.1 nM,–

SMILES,max dye-equivalent concentration,outcome
O=C(Cc1cccs1)Nc1ccc(NC(=O)c2ccco2)cc1,inactive,–
CCn1cc(C(=O)NCc2ccc3c(c2)OCO3)c(=O)c2cc(S(=O)(=O)N3CCOCC3)ccc21,inconclusive: 1.1 nM,–
c1ccc(-n2nnnc2Sc2n[nH]c(-c3ccncc3)n2)cc1,inconclusive: 1.5 nM,–
N#Cc1cccc(NC(=O)N2CCC3(CC2)CCN(C(=O)c2csnn2)CC3)c1,inactive,–
COCCn1c(=O)c(-c2ccccc2)nc2cnc(N3CCNCC3)nc21,inactive,–
CC1Cc2ccccc2N1C(=O)CN1C(=O)NC(C)(c2ccc3c(c2)OCCO3)C1=O (stereo unspecified),inconclusive: 1.6 nM,–
C#C[C@H](N)CCC(=O)O,inactive,–
CCc1c(C)nc2ncnn2c1N1CCCC(C(=O)NCc2ccco2)C1 (stereo unspecified),inconclusive: 2.1 nM,–
O=C(O)c1ccc(N2CCCC2=O)cc1,inconclusive: 1.9 nM,–
COc1ccc(OC)c(NC(=O)CN2CCC(C(=O)c3ccc(C)cc3)CC2)c1,inconclusive: 1.5 nM,–
C[C@@]12C(=O)OC(=O)[C@@]1(C)[C@H]1CC[C@@H]2O1,inconclusive: 1.5 nM,inactive
O=C1c2ccccc2C(=O)c2c(NC(=O)c3ccc4c5c(ncnc35)-c3ccccc3C4=O)cccc21,inconclusive: 1.3 nM,–
O=C1N(CC(=O)N2CCc3ccccc32)CCN1Cc1ccccc1Cl,inconclusive: 1.1 nM,–
CCOC(=O)c1c(NC(=O)CSc2n[nH]c(-c3ccco3)n2)sc(C)c1C,inconclusive: 1.3 nM,–
NC(=O)CSCc1c(Cl)cccc1Cl,inconclusive: 2 nM,–
CCSC[C@@H](N)C(=O)O,inactive,–
COc1ccc(CC(=O)NC2CCN(Cc3nnnn3C(C)(C)C)CC2)cc1OC,inconclusive: 1.4 nM,–
CC(NC(=O)C1CCC1)c1ccccc1 (stereo unspecified),inconclusive: 1.1 nM,–
CCN(CC(=O)Nc1ccc2c(c1)OCCO2)c1ccc(S(=O)(=O)N2CCOCC2)cn1,inconclusive: 1.3 nM,–
